In patent US20250195488A1, “MEDICINE CONTAINING VITAMIN D DERIVATIVE OR PHARMACEUTICALLY ACCEPTABLE SALT OR SOLVATE THEREOF, USED IN COMBINATION WITH IMMUNOMODULATORY SUBSTANCE” (TEEJIN PHARMA LIMITED, priority 2022, published 2025):
Some of these results come from one statement about several compounds together.

System: rat oligodendrocyte progenitor cells
Test: Promotive activity of rat oligodendrocyte progenitor cell differentiation-1 (MBP gene expression, mRNA)
Assay type: cell-based
Conditions: 1 μM, 4 days, MBP/β actin mRNA, T3 30 nM = 100%
Method: Regarding vitamin D derivatives, which was confirmed to act on the vitamin D receptor (VDR) in Example 352, the promotive activity of oligodendrocyte progenitor cell (OPC) differentiation was evaluated by MBP gene expression (mRNA).
A forebrain obtained from SD rat (Charles River Japan, 1 day old) was crushed with 70 μm Cell Strainer (Falcon #352350), and a cell suspension was prepared by collecting the cells in oligodendrocyte progenitor cell separation medium (20% FBS/2 mM Glutamax (Gibco #35050-061)/i mM sodium pyruvate (Gibco #11360-070)/1% penicillin-streptomycin (Invitrogen #15140-122)/DMEM (Gibco #11960-044)). The cell suspension was seeded in a poly-D-lysine coated T75 flask (Thermo Fisher Scientific #132704) and cultured for about 2 weeks. After culturing, the flask was shaken using a rotary shaker ([…] #WB-101SRC) for about 1 hour (37° C., 100 rpm), and the supernatant was discarded to remove microglia. Subsequently, oligodendrocyte progenitor cell separation medium was added to the flask, and the mixture was similarly shaken for about 22 hours (37° C., 200 rpm), and the supernatant was collected to prepare oligodendrocyte progenitor cells. […]

With `COC1(C)CCCN(C[C@@H](C)[C@H]2CC[C@H]3/C(=C/C=C4C[C@@H](O)C[C@H](O)C4)CCC[C@]23C)C1` (single isomer, unassigned) [Compound C045a] the “promotive activity at T3 base (MBP gene expression; DMSO 0%, T3 100%)” value was no less than 20%.
